Measurements taken from patent US20100216179A1, “Method for detecting cancer and reagents for use therein” (priority 2009, published 2010).

Tested on: normal human oral keratinocyte (NHOK) cell lines
Experiment: Physisorption/desorption of adsorbent on fixed cell lines, infrared spectral imaging (oral cavity)
Type: cell-based
Settings: desorption in xylene for 5 seconds
From the text: The aforementioned method may also be adopted in determining oral cavity cancer, wherein there are 5 wt % paraffin and 5 wt % beeswax in xylene using as the first adsorbent and the second adsorbent, respectively.
The procedures for determining the oral cavity cancer according to this method is similar to the process steps 1-8 of embodiment 1 described above, except for the first adsorbent comprises 5 wt % Triacontane (C30H62); the second adsorbent comprises 7.5 wt % ethyl myristate (C16H32O2).
The procedure for determining the oral cavity cancer (III) is similar to the process steps 1-4 of embodiment 1 described above, except for the first adsorbent comprises a xylene solution containing 10 wt % 3,5,5-Trimethylhexyl 3,5,5-trimethylcaproat (C18H36O2).

SMILES	absorption of adsorbed adsorbent in the spectral range 3000-2800 cm^-1 (7.5 wt % adsorbent)	absorption of adsorbed adsorbent in the spectral range 3000-2800 cm^-1 (10 wt % adsorbent in xylene)
CCCCCCCCCCCCCC(=O)OCC [ethyl myristate]	stronger absorption	–
CC(CCOC(=O)CC(C)CC(C)(C)C)CC(C)(C)C (centres unmarked) [3,5,5-Trimethylhexyl 3,5,5-trimethylcaproat]	–	stronger absorption
